In patent US20190169692A1:
Results are given in words; binding and its absence hold for the method and conditions named. Some binding calls cover weakened binding; strength is not graded here.

The chains behind the UniProt entries cited, without tags or fusion partners.
UniProt Q86UX6: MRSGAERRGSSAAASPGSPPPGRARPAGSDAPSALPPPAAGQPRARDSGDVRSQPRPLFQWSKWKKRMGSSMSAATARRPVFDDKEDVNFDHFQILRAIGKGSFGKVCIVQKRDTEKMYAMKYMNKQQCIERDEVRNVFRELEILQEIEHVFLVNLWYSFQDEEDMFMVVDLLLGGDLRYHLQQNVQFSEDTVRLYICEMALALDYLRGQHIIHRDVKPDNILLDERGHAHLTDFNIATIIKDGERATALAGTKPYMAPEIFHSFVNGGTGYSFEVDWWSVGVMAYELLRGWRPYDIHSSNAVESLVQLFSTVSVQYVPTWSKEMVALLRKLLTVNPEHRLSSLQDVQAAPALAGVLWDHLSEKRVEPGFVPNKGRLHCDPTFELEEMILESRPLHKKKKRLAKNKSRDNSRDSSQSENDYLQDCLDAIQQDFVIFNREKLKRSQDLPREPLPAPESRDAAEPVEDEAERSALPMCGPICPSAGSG
UniProt P67809: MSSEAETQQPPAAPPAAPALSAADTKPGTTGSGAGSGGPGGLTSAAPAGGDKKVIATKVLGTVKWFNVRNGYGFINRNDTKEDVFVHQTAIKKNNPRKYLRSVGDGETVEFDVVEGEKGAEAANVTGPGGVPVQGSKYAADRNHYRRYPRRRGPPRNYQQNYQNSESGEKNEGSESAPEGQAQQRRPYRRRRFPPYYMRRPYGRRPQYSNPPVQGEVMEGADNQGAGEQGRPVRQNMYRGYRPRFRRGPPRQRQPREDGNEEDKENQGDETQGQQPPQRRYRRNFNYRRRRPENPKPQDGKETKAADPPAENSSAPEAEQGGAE

What was measured:
[1] = molecular target: serine threonine kinase 32C (STK32C) (UniProt Q86UX6); test: reciprocal immunoprecipitation using YB-1, detection of STK32C (FIG. 19b)
[2] = molecular target: YB-1 protein (UniProt P67809); test: immunoprecipitation with STK32C antibody, detection of YB-1 (FIG. 19a)

| binding [1] | binding [2] | Substance |
| --- | --- | --- |
| binds | – | YB-1 protein (from UniProt P67809 1-324) |
| – | binds | serine threonine kinase 32C (STK32C) (from UniProt Q86UX6 1-486) (enzyme) |
